Results are given in words; binding and its absence hold for the method and conditions named. Each block holds one molecule with its values, some of them ahead of it.
Legend:
[1] = target: HsLaRP4B La-module (151–328) (human) (UniProt Q92615); experiment: SEC-SAXS; in-line size exclusion (Agilent BioSEC3, 300 Å pores) with SAXS at SWING, SOLEIL; apo protein loaded at around 150–200 μM; 20 mM Tris pH 7.5, 100 mM KCl, 1 mM TCEP; 25°C; molecular weight from Porod volume compared with sequence; both purified
[2] = target: HsLaRP4A La-module (111–287) (human) (UniProt Q71RC2); experiment: as above
[3] = target: HsLa La-module (4–194) (human) (UniProt P05455); experiment: as above
[4] = target: HsLaRP6 85–300 La-module (human) (UniProt Q9BRS8); experiment: as above
[5] = target: HsLaRP7 La-module (1–208) (human) (UniProt Q4G0J3); experiment: SEC-SAXS; in-line size exclusion (Agilent BioSEC3, 300 Å pores) with SAXS at SWING, SOLEIL; apo protein loaded at around 200 µM; 20 mM HEPES pH 7.2, 200 mM NaCl, 5 mM MgCl2, 0.5 mM TCEP; 25°C; molecular weight from Porod volume compared with sequence; both purified

The chains behind the UniProt entries cited, without tags or fusion partners. Residues count along the entry.
UniProt Q92615, residues 151-328: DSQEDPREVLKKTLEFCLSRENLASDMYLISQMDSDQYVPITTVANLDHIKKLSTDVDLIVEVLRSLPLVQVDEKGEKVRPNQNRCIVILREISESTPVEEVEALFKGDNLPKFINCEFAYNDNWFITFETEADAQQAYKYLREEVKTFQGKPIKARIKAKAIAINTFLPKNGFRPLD
UniProt Q71RC2, residues 111-287: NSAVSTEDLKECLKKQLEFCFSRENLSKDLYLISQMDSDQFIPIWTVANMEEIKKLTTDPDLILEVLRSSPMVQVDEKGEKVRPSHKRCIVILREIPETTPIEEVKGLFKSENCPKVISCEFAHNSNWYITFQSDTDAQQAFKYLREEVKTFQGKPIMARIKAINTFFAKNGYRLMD

- binding [1]: no binding (tested: 150–200 μM)
Molecule: HsLaRP4B La-module (151–328) (from UniProt Q92615 151-328) (domain or fragment)

- binding [2]: no binding (tested: 150–200 μM)
Molecule: HsLaRP4A La-module (111–287) (from UniProt Q71RC2 111-287) (domain or fragment)

- binding [3]: no binding (tested: 150–200 μM)
B1: HsLa La-module (4–194) (domain or fragment, UniProt P05455 4-194)
chain: NGDNEKMAALEAKICHQIEYYFGDFNLPRDKFLKEQIKLDEGWVPLEIMIKFNRLNRLTTDFNVIVEALSKSKAELMEISEDKTKIRRSPSKPLPEVTDEYKNDVKNRSVYIKGFPTDATLDDIKEWLEDKGQVLNIQMRRTLHKAFKGSIFVVFDSIESAKKFVETPGQKYKETDLLILFKDDYFAKKNE

- binding [4]: no binding (tested: 150–200 μM)
B2: HsLaRP6 85–300 La-module (domain or fragment, UniProt Q9BRS8 85-300)
chain: WKPPDEELIKKLVDQIEFYFSDENLEKDAFLLKHVRRNKLGYVSVKLLTSFKKVKHLTRDWRTTAHALKYSVVLELNEDHRKVRRTTPVPLFPNENLPSKMLLVYDLYLSPKLWALATPQKNGRVQEKVMEHLLKLFGTFGVISSVRILKPGRELPPDIRRISSRYSQVGTQECAIVEFEEVEAAIKAHEFMITESQGKENMKAVLIGMKPPKKKP

- binding [5]: no binding (tested: around 200 µM)
B3: HsLaRP7 La-module (1–208) (domain or fragment, UniProt Q4G0J3 1-208)
chain: METESGNQEKVMEEESTEKKKEVEKKKRSRVKQVLADIAKQVDFWFGDANLHKDRFLREQIEKSRDGYVDISLLVSFNKMKKLTTDGKLIARALRSSAVVELDLEGTRIRRKKPLGERPKDEDERTVYVELLPKNVNHSWIERVFGKCGNVVYISIPHYKSTGDPKGFAFVEFETKEQAAKAIEFLNNPPEEAPRKPGIFPKTVKNKP

Reference: article PMC7928032
